Laboratory results taken from paper PMC5289633.
No constants are given. Whether binding was seen depends on the method and setting. In cells and extracts the contact can be indirect. Some results given as binding are weak or reduced against the parent protein; the word gives no strength.

Sequences of proteins named here, by UniProt entry; tags and fusion partners are left off. Residues count along the entry.
UniProt Q62696: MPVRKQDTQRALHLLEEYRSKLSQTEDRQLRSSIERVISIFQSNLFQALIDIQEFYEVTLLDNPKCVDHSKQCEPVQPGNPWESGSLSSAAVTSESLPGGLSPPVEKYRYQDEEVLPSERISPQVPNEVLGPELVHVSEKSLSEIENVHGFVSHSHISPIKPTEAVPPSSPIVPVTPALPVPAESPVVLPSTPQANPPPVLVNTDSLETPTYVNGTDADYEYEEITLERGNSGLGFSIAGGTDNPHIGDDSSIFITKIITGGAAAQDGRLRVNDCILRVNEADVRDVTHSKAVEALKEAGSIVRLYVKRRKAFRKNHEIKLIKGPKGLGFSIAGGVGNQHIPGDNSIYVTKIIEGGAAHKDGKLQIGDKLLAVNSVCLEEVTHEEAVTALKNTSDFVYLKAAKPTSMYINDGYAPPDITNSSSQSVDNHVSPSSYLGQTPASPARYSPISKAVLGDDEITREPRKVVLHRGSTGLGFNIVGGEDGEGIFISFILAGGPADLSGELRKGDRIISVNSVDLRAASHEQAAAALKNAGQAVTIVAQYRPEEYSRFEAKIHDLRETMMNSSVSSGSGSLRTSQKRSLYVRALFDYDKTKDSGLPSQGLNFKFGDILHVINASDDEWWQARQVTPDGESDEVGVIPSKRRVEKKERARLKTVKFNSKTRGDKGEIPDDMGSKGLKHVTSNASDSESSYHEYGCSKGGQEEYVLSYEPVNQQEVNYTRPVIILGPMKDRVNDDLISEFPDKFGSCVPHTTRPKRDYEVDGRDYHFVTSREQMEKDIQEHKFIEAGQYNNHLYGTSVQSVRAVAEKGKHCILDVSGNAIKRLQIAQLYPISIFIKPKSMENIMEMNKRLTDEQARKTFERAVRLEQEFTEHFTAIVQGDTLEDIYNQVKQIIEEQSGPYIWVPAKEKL
UniProt P29475: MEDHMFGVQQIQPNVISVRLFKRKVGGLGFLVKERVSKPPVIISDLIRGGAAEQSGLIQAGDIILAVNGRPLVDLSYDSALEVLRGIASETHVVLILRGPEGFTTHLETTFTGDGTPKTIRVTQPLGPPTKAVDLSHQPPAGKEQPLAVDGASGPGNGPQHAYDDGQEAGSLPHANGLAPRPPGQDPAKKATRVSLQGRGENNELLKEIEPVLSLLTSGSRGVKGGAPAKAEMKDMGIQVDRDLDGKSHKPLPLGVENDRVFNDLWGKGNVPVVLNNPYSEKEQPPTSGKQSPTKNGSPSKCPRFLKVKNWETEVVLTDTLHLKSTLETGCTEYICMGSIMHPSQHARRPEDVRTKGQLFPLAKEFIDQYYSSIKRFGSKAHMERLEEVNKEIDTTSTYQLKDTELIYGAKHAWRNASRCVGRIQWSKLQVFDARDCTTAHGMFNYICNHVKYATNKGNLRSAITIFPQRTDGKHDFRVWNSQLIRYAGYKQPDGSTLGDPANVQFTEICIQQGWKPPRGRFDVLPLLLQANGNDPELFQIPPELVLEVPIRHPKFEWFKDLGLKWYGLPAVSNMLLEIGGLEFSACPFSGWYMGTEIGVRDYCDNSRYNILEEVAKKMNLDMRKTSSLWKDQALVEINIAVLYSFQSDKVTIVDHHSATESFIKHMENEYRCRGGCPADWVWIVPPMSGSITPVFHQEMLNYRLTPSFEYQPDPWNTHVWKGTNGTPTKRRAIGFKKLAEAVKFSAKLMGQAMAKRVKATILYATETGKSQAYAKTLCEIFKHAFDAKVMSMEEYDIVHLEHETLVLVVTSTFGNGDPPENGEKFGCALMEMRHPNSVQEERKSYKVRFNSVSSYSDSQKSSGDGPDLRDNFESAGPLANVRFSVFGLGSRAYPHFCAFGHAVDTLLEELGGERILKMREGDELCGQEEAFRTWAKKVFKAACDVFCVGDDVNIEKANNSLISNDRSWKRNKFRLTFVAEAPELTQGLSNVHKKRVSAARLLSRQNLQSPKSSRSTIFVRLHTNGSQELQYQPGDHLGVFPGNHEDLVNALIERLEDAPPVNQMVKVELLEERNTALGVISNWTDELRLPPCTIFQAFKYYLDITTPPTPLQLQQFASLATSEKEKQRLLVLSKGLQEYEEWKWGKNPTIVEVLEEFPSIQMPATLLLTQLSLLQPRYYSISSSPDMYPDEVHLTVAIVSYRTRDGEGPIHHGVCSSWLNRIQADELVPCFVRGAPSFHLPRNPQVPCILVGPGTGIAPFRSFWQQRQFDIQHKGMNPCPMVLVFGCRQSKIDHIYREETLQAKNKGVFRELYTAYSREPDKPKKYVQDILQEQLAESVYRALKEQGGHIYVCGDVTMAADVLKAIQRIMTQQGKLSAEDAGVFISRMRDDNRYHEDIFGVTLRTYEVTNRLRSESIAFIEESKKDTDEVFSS
UniProt P29476: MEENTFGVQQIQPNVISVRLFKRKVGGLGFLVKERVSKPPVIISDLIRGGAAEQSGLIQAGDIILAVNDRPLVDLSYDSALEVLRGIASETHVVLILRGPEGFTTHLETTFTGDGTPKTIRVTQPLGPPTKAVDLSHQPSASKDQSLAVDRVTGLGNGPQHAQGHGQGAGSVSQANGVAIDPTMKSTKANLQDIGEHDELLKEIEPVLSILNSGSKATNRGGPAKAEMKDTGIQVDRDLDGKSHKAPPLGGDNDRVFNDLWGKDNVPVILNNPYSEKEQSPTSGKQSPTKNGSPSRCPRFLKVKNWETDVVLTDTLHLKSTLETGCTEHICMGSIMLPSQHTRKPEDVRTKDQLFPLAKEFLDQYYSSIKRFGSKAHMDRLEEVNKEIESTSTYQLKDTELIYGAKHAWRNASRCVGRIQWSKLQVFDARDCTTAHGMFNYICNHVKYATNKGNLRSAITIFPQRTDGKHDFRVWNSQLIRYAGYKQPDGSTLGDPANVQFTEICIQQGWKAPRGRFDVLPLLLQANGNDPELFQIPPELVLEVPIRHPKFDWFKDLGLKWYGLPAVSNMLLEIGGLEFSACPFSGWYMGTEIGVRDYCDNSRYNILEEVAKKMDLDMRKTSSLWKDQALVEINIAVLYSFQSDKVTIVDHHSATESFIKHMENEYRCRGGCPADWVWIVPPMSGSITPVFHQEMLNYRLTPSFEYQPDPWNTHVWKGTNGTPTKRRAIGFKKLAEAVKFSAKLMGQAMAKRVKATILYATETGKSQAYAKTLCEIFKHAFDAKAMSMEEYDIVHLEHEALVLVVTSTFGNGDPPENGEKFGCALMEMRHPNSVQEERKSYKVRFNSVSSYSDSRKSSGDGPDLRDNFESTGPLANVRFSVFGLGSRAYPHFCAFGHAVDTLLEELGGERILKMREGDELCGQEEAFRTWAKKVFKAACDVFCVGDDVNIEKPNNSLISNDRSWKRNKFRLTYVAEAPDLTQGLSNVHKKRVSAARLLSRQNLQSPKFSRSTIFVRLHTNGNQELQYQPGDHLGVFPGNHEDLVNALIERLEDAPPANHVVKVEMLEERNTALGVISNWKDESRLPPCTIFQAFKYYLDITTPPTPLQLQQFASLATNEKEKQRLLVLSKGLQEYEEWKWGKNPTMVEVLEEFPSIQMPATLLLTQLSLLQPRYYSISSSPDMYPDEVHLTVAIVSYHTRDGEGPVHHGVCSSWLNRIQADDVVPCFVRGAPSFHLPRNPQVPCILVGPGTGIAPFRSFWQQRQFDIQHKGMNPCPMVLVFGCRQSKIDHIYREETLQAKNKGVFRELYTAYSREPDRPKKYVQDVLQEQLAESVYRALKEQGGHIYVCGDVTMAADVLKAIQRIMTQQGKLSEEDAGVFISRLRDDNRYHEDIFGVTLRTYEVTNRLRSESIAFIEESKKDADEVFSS
UniProt P19490, residues 19-907: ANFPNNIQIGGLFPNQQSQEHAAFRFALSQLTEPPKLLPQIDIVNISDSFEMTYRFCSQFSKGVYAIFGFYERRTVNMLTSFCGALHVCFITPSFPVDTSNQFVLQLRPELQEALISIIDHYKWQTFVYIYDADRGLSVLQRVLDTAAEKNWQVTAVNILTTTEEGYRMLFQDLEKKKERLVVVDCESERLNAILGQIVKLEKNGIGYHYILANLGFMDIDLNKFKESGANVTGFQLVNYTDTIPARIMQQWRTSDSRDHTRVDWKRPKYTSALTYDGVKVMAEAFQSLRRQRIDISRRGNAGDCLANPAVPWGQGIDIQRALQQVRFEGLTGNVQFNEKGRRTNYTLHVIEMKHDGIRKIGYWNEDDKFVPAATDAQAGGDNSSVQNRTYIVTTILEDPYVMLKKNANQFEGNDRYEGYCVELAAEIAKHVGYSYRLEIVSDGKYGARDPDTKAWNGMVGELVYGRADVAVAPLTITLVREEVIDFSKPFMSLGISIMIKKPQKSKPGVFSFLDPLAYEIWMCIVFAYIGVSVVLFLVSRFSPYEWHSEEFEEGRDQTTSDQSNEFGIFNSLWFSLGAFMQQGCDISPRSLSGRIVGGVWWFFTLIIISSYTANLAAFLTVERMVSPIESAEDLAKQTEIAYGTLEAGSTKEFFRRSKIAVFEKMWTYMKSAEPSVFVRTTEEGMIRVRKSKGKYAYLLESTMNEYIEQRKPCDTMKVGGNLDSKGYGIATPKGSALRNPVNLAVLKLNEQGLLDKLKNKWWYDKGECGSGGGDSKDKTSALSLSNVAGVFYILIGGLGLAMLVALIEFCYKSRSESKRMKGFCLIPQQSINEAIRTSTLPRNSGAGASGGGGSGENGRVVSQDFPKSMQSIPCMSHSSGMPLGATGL

What was measured:
[1] = molecular target: SAP97, endogenous in rat cortex (rat (endogenous in P7 cortex)) (UniProt Q62696); assay: co-IP; detergent extracts (low-salt buffer, 0.5% igepal) of postnatal day 7 rat cerebral cortex; IP with SAP97N antiserum or monoclonal nNOS antibody A-11, protein-A magnetic beads, 4°C; western blot
[2] = molecular target: biotin-tagged nNOS (human) (UniProt P29475); assay: pull-down; streptavidin-sepharose pull-down of biotin-tagged nNOS from detergent extracts of HEK293T cells transfected with Bio-nNOS, Flag-GluA1 and myc-SAP97 (also without GluA1), two days after transfection; western blot
[3] = molecular target: neuronal nitric oxide synthase (nNOS), endogenous in rat cortex (rat (endogenous in P7 cortex)) (UniProt P29476); assay: co-IP; detergent extracts (low-salt buffer, 0.5% igepal) of postnatal day 7 rat cerebral cortex; IP with SAP97N antiserum or monoclonal nNOS antibody A-11, protein-A magnetic beads, 4°C; western blot

Row | binding [1] | further results | Substance
1 | binds |  | GluA1, endogenous in rat cortex (from UniProt P19490 19-907) (receptor)
2 |  | binding [2]: binds | N-terminally myc-tagged SAP97 (from UniProt Q62696 1-911)
3 |  | binding [3]: binds | SAP97, endogenous in rat cortex (from UniProt Q62696 1-911)
4 | binds |  | neuronal nitric oxide synthase (nNOS), endogenous in rat cortex (from UniProt P29476 1-1429) (enzyme)
